Further values from the same series stand in other lists.
System: patients with major depressive disorder
Experiment: Open-label trials of adjunctive agomelatine 25 mg at bedtime in MDD; baseline EEG models predicting change in MADRS
Type: in vivo, human

SMILES: COc1ccc2cccc(CCNC(C)=O)c2c1 [agomelatine, N-[2-(7-methoxynaphthalen-1-yl)ethyl]acetamide]
- d (Cohen's d, prediction of agomelatine outcome) (REC, Approximate Entropy, lower gamma, Week 6): 0.54
- d (Cohen's d, prediction of agomelatine outcome) (REC, Approximate Entropy, lower gamma, Week 8): 0.69
- d (Cohen's d, prediction of agomelatine outcome) (REC, Detrended Fluctuation Analysis, lower beta, Week 6): 0.35
- d (Cohen's d, prediction of agomelatine outcome) (REC, Detrended Fluctuation Analysis, lower beta, Week 8): 0.31
- d (Cohen's d, prediction of agomelatine outcome) (REC, Detrended Fluctuation Analysis, upper beta, Week 6): 0.27
- d (Cohen's d, prediction of agomelatine outcome) (REC, Detrended Fluctuation Analysis, upper beta, Week 8): 0.29
- d (Cohen's d, prediction of agomelatine outcome) (REC, Higuchi Fractal Dimension, lower beta, Week 6): 0.17
- d (Cohen's d, prediction of agomelatine outcome) (REC, Higuchi Fractal Dimension, lower beta, Week 8): 0.09
- d (Cohen's d, prediction of agomelatine outcome) (REC, Higuchi Fractal Dimension, lower gamma, Week 6): 0.50
- d (Cohen's d, prediction of agomelatine outcome) (REC, Higuchi Fractal Dimension, lower gamma, Week 8): 0.47
- d (Cohen's d, prediction of agomelatine outcome) (REC, Higuchi Fractal Dimension, upper beta, Week 6): 0.08
- d (Cohen's d, prediction of agomelatine outcome) (REC, Higuchi Fractal Dimension, upper beta, Week 8): 0.20
- d (Cohen's d, prediction of agomelatine outcome) (REC, Higuchi Fractal Dimension, upper gamma, Week 6): 0.22
- d (Cohen's d, prediction of agomelatine outcome) (REC, Higuchi Fractal Dimension, upper gamma, Week 8): 0.25
- d (Cohen's d, prediction of agomelatine outcome) (REC, Katz Fractal Dimension, lower beta, Week 6): 0.29
- d (Cohen's d, prediction of agomelatine outcome) (REC, Katz Fractal Dimension, lower beta, Week 8): 0.24
- d (Cohen's d, prediction of agomelatine outcome) (REC, Katz Fractal Dimension, lower gamma, Week 6): 0.20
- d (Cohen's d, prediction of agomelatine outcome) (REC, Katz Fractal Dimension, lower gamma, Week 8): 0.19
- d (Cohen's d, prediction of agomelatine outcome) (REC, Katz Fractal Dimension, upper beta, Week 6): 0.39
- d (Cohen's d, prediction of agomelatine outcome) (REC, Katz Fractal Dimension, upper beta, Week 8): 0.36
- d (Cohen's d, prediction of agomelatine outcome) (REC, Katz Fractal Dimension, upper gamma, Week 6): 0.32
- d (Cohen's d, prediction of agomelatine outcome) (REC, Katz Fractal Dimension, upper gamma, Week 8): 0.43
- d (Cohen's d, prediction of agomelatine outcome) (REC, Largest Lyapunov Exponent, upper alpha, Week 6): 0.22
- d (Cohen's d, prediction of agomelatine outcome) (REC, Largest Lyapunov Exponent, upper alpha, Week 8): 0.26
- d (Cohen's d, prediction of agomelatine outcome) (REC, Largest Lyapunov Exponent, upper gamma, Week 6): 0.46
- d (Cohen's d, prediction of agomelatine outcome) (REC, Largest Lyapunov Exponent, upper gamma, Week 8): 0.62
- d (Cohen's d, prediction of agomelatine outcome) (REC, Lempel-Ziv Complexity, lower gamma, Week 6): 0.26
- d (Cohen's d, prediction of agomelatine outcome) (REC, Lempel-Ziv Complexity, lower gamma, Week 8): 0.37
- d (Cohen's d, prediction of agomelatine outcome) (REC, Lempel-Ziv Complexity, upper alpha, Week 6): 0.07
- d (Cohen's d, prediction of agomelatine outcome) (REC, Lempel-Ziv Complexity, upper alpha, Week 8): 0.02
- d (Cohen's d, prediction of agomelatine outcome) (REC, Modified Multiscale Entropy, lower alpha, Week 6): 0.24
- d (Cohen's d, prediction of agomelatine outcome) (REC, Modified Multiscale Entropy, lower alpha, Week 8): 0.30
- d (Cohen's d, prediction of agomelatine outcome) (REC, Modified Multiscale Entropy, lower gamma, Week 6): 0.37
- d (Cohen's d, prediction of agomelatine outcome) (REC, Modified Multiscale Entropy, lower gamma, Week 8): 0.54
- d (Cohen's d, prediction of agomelatine outcome) (REC, Modified Multiscale Entropy, upper alpha, Week 6): 0.51
- d (Cohen's d, prediction of agomelatine outcome) (REC, Modified Multiscale Entropy, upper alpha, Week 8): 0.62
- d (Cohen's d, prediction of agomelatine outcome) (REC, Multiscale Entropy, lower gamma, Week 1): 0.18
- d (Cohen's d, prediction of agomelatine outcome) (REC, Multiscale Entropy, lower gamma, Week 2): 0.24
- d (Cohen's d, prediction of agomelatine outcome) (REC, Multiscale Entropy, lower gamma, Week 4): 0.39
- d (Cohen's d, prediction of agomelatine outcome) (REC, Multiscale Entropy, lower gamma, Week 6): 0.49
- d (Cohen's d, prediction of agomelatine outcome) (REC, Multiscale Entropy, lower gamma, Week 8): 0.57
- d (Cohen's d, prediction of agomelatine outcome) (REC, Multiscale Entropy, upper alpha, Week 2): 0.08
- d (Cohen's d, prediction of agomelatine outcome) (REC, Multiscale Entropy, upper alpha, Week 4): 0.15
- d (Cohen's d, prediction of agomelatine outcome) (REC, Multiscale Entropy, upper alpha, Week 6): 0.20
- d (Cohen's d, prediction of agomelatine outcome) (REC, Multiscale Entropy, upper alpha, Week 8): 0.24
- d (Cohen's d, prediction of agomelatine outcome) (REC, Permutation Entropy, lower gamma, Week 1): 0.38
- d (Cohen's d, prediction of agomelatine outcome) (REC, Permutation Entropy, lower gamma, Week 2): 0.35
- d (Cohen's d, prediction of agomelatine outcome) (REC, Permutation Entropy, lower gamma, Week 4): 0.33
- d (Cohen's d, prediction of agomelatine outcome) (REC, Permutation Entropy, lower gamma, Week 6): 0.27
- d (Cohen's d, prediction of agomelatine outcome) (REC, Permutation Entropy, lower gamma, Week 8): 0.24
- d (Cohen's d, prediction of agomelatine outcome) (REC, Tsallis Entropy, upper alpha, Week 1): 0.03
- d (Cohen's d, prediction of agomelatine outcome) (REC, Tsallis Entropy, upper alpha, Week 2): 0.04
- d (Cohen's d, prediction of agomelatine outcome) (REC, Tsallis Entropy, upper alpha, Week 4): 0.06
- d (Cohen's d, prediction of agomelatine outcome) (REC, Tsallis Entropy, upper alpha, Week 6): 0.08
- d (Cohen's d, prediction of agomelatine outcome) (REC, Tsallis Entropy, upper alpha, Week 8): 0.10
- d (Cohen's d, prediction of agomelatine outcome) (REO, Approximate Entropy, lower gamma, Week 6): 0.22
- d (Cohen's d, prediction of agomelatine outcome) (REO, Approximate Entropy, lower gamma, Week 8): 0.35
- d (Cohen's d, prediction of agomelatine outcome) (REO, Detrended Fluctuation Analysis, delta, Week 1): 0.07
- d (Cohen's d, prediction of agomelatine outcome) (REO, Detrended Fluctuation Analysis, delta, Week 2): 0.10
- d (Cohen's d, prediction of agomelatine outcome) (REO, Detrended Fluctuation Analysis, delta, Week 4): 0.18
- d (Cohen's d, prediction of agomelatine outcome) (REO, Detrended Fluctuation Analysis, delta, Week 6): 0.26
- d (Cohen's d, prediction of agomelatine outcome) (REO, Detrended Fluctuation Analysis, delta, Week 8): 0.32
- d (Cohen's d, prediction of agomelatine outcome) (REO, Detrended Fluctuation Analysis, lower beta, Week 1): 0.03
- d (Cohen's d, prediction of agomelatine outcome) (REO, Detrended Fluctuation Analysis, lower beta, Week 2): 0.06
- d (Cohen's d, prediction of agomelatine outcome) (REO, Detrended Fluctuation Analysis, lower beta, Week 4): 0.12
- d (Cohen's d, prediction of agomelatine outcome) (REO, Detrended Fluctuation Analysis, lower beta, Week 6): 0.18
- d (Cohen's d, prediction of agomelatine outcome) (REO, Detrended Fluctuation Analysis, lower beta, Week 8): 0.23
- d (Cohen's d, prediction of agomelatine outcome) (REO, Detrended Fluctuation Analysis, upper gamma, Week 6): 0.32
- d (Cohen's d, prediction of agomelatine outcome) (REO, Detrended Fluctuation Analysis, upper gamma, Week 8): 0.31
- d (Cohen's d, prediction of agomelatine outcome) (REO, Higuchi Fractal Dimension, delta, Week 6): 0.26
- d (Cohen's d, prediction of agomelatine outcome) (REO, Higuchi Fractal Dimension, delta, Week 8): 0.41
- d (Cohen's d, prediction of agomelatine outcome) (REO, Higuchi Fractal Dimension, lower beta, Week 6): 0.06
- d (Cohen's d, prediction of agomelatine outcome) (REO, Higuchi Fractal Dimension, lower beta, Week 8): 0.07
- d (Cohen's d, prediction of agomelatine outcome) (REO, Higuchi Fractal Dimension, upper gamma, Week 6): 0.16
- d (Cohen's d, prediction of agomelatine outcome) (REO, Higuchi Fractal Dimension, upper gamma, Week 8): 0.20
- d (Cohen's d, prediction of agomelatine outcome) (REO, Katz Fractal Dimension, delta, Week 6): 0.18
- d (Cohen's d, prediction of agomelatine outcome) (REO, Katz Fractal Dimension, delta, Week 8): 0.23
- d (Cohen's d, prediction of agomelatine outcome) (REO, Katz Fractal Dimension, lower beta, Week 6): −0.07
- d (Cohen's d, prediction of agomelatine outcome) (REO, Katz Fractal Dimension, lower beta, Week 8): −0.18
- d (Cohen's d, prediction of agomelatine outcome) (REO, Katz Fractal Dimension, upper beta, Week 6): 0.32
- d (Cohen's d, prediction of agomelatine outcome) (REO, Katz Fractal Dimension, upper beta, Week 8): 0.35
- d (Cohen's d, prediction of agomelatine outcome) (REO, Largest Lyapunov Exponent, upper alpha, Week 6): 0.26
- d (Cohen's d, prediction of agomelatine outcome) (REO, Largest Lyapunov Exponent, upper alpha, Week 8): 0.34
- d (Cohen's d, prediction of agomelatine outcome) (REO, Largest Lyapunov Exponent, upper gamma, Week 6): 0.26
- d (Cohen's d, prediction of agomelatine outcome) (REO, Largest Lyapunov Exponent, upper gamma, Week 8): 0.43
- d (Cohen's d, prediction of agomelatine outcome) (REO, Lempel-Ziv Complexity, lower gamma, Week 6): 0.17
- d (Cohen's d, prediction of agomelatine outcome) (REO, Lempel-Ziv Complexity, lower gamma, Week 8): 0.31
- d (Cohen's d, prediction of agomelatine outcome) (REO, Lempel-Ziv Complexity, theta, Week 6): 0.19
- d (Cohen's d, prediction of agomelatine outcome) (REO, Lempel-Ziv Complexity, theta, Week 8): 0.22
- d (Cohen's d, prediction of agomelatine outcome) (REO, Lempel-Ziv Complexity, upper beta, Week 6): 0.35
- d (Cohen's d, prediction of agomelatine outcome) (REO, Lempel-Ziv Complexity, upper beta, Week 8): 0.40
- d (Cohen's d, prediction of agomelatine outcome) (REO, Modified Multiscale Entropy, upper beta, Week 6): 0.43
- d (Cohen's d, prediction of agomelatine outcome) (REO, Modified Multiscale Entropy, upper beta, Week 8): 0.61
- d (Cohen's d, prediction of agomelatine outcome) (REO, Multiscale Entropy, lower gamma, Week 6): 0.30
- d (Cohen's d, prediction of agomelatine outcome) (REO, Multiscale Entropy, lower gamma, Week 8): 0.52
- d (Cohen's d, prediction of agomelatine outcome) (REO, Multiscale Entropy, upper beta, Week 1): −0.09
- d (Cohen's d, prediction of agomelatine outcome) (REO, Multiscale Entropy, upper beta, Week 2): 0.02
- d (Cohen's d, prediction of agomelatine outcome) (REO, Multiscale Entropy, upper beta, Week 4): 0.20
- d (Cohen's d, prediction of agomelatine outcome) (REO, Multiscale Entropy, upper beta, Week 6): 0.36
- d (Cohen's d, prediction of agomelatine outcome) (REO, Multiscale Entropy, upper beta, Week 8): 0.54
- d (Cohen's d, prediction of agomelatine outcome) (REO, Tsallis Entropy, lower beta, Week 1): −0.18
- d (Cohen's d, prediction of agomelatine outcome) (REO, Tsallis Entropy, lower beta, Week 2): −0.09
- d (Cohen's d, prediction of agomelatine outcome) (REO, Tsallis Entropy, lower beta, Week 4): 0.02
- d (Cohen's d, prediction of agomelatine outcome) (REO, Tsallis Entropy, lower beta, Week 6): 0.13
- d (Cohen's d, prediction of agomelatine outcome) (REO, Tsallis Entropy, lower beta, Week 8): 0.23
- d (Cohen's d, prediction of agomelatine outcome) (REO, Tsallis Entropy, lower gamma, Week 1): 0.21
- d (Cohen's d, prediction of agomelatine outcome) (REO, Tsallis Entropy, lower gamma, Week 2): 0.18
- d (Cohen's d, prediction of agomelatine outcome) (REO, Tsallis Entropy, lower gamma, Week 4): 0.16
- d (Cohen's d, prediction of agomelatine outcome) (REO, Tsallis Entropy, lower gamma, Week 6): 0.15
- d (Cohen's d, prediction of agomelatine outcome) (REO, Tsallis Entropy, lower gamma, Week 8): 0.13

Source: patent US20250049738A1, “METHOD OF TREATMENT AND SELECTION OF PATIENTS BENEFITING FROM AGOMELATINE BASED ON EEG MEASUREMENTS” (Alto Neuroscience, Inc., priority 2023, published 2025)
